## Screening data, single-dose tests

Source: ChEMBL document CHEMBL3988442, “University of Dundee, Small-Polar-MMV Screening Library” (2021).

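Whole-cell growth test on Mycobacterium tuberculosis, read after 3 days in glucose-containing 7H9 medium; the read-out is not stated. Concentration: 50 µM. Higher reads as more growth inhibition (inferred: compounds with an IC50 in retests scored well above the rest). Size under these conditions: about 69,000 compounds, about 760 of them at 50% or above in at least one test.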

Results are given as percent effect.
The record does not define 0% and 100%; most values in the screen are far below 50% and negative numbers occur (in some assays of this library far below -100).
The compounds are a random part of those screened.
Two or more numbers in one place are separate tests of the same structure; such repeats can differ widely.

SMILES,percent effect
Fc1ccc(CCN2CCC(c3nnc(-c4cccnc4)o3)CC2)cc1,-6.05
CS(=O)(=O)c1cnc(C2CCCC2)nc1C1CCCNC1 (stereo not drawn),-0.2896
Cc1cc(CN(C)CCC(O)c2ccccc2)no1 (stereo not drawn),0.8102
O=C(CN1CCOC(c2ccc(Cl)c(Cl)c2)C1)NCc1ccco1 (stereo not drawn),-9.031
[H][C@@]12CN(S(=O)(=O)CCC)C[C@]1([H])N(CCc1cccc(Cl)c1)C(=O)O2,17.24
Cc1noc(CCCC(=O)NCC(c2ccco2)N2CCCCC2)n1 (stereo not drawn),-19.48 and -4.167
CCn1ccnc1CN1CCC(CNC(=O)c2ccc(C)nc2)C1 (stereo not drawn),4.835
Cc1ccccc1CC(C)(C)NC(=O)CCOc1cccc(C(N)=O)c1,4.32 and 1.299
COCC(=O)N(C)Cc1ccc(OCc2cccs2)cc1,13.98 and 23.77
O=C(CCCn1cnc2ccccc2c1=O)Nc1nc[nH]n1,-5.572
Cc1ccc2c(n1)N(CC1CC1)CCN(S(=O)(=O)C1CC1)C2.O=C(O)C(F)(F)F,8.55 and -25.06
Cc1ccc(=O)n(CC2(O)CCN(Cc3c(F)cccc3F)CC2)n1,21.22
Cc1cc(C(=O)Nc2n[nH]c(C3CC3)n2)c2c(C)nn(C)c2n1,0.1605 and -23.66
Cc1cccc(CN2C(=O)CCC23CCN(Cc2ccoc2)CC3)n1,2.577
Cn1cc(C(=O)N2CCCN(c3cccnn3)CC2)c2ccccc21,-4.663
CCc1cnc(CNC(=O)NCCc2ccc(O)cc2)s1,7.836
Cc1ncsc1C(=O)NC1CCN(Cc2ccc(C(N)=O)cc2)CC1,23.57
CCOCC1c2c(cnn2CC2CC2)CCN1Cc1nccs1.O=C(O)C(F)(F)F.O=C(O)C(F)(F)F (stereo not drawn),-9.741
Fc1cccnc1N1CCOCC2(CCCN(c3nncs3)C2)C1.O=C(O)C(F)(F)F (stereo not drawn),-6.552
Cc1nc(C(=O)N2CCc3[nH]nc(Nc4ccccc4)c3C2)co1,5.242
O=C(Nc1c(N2CCCC2)cccc1N1CCCC1)c1cnsn1,9.737
CCc1nccn1CC(=O)Nc1cccc(N2CCCC2)c1,-21.66
O=C(O)C(F)(F)F.O=C1COC2(COCCN(Cc3ccsc3)C2)CN1c1ccc(F)cc1 (stereo not drawn),-0.2628
CN(CCNC(=O)c1cnc(-c2ccncc2)nc1)S(C)(=O)=O,1.046
CCC(Oc1ccc(N(C)S(C)(=O)=O)cc1)C(=O)NC (stereo not drawn),14.01
CCN(C(=O)Nc1cc(C)on1)C(C)c1cccc(O)c1 (stereo not drawn),-13.81
CCc1nn(C)c(Cl)c1CN1CCN(c2nc(C(N)=O)cs2)CC1,-0.04469 and 3.496
CN(Cc1ccccn1)C(=O)c1nn(C)c2c1CCN(CC1CC1)C2.O=C(O)C(F)(F)F.O=C(O)C(F)(F)F.O=C(O)C(F)(F)F,-22.93 and -0.07961
COc1ccc(CN(C)C(=O)c2nnc(CN(C)C)o2)cc1,10.86
Cc1ccc(C(=O)N2CCC(Oc3c(C)cccc3C)CC2)c(=O)[nH]1,11.71
CC(C)=CCC/C(C)=C/CC(C)(C)CNCc1ccco1,34.21
COC(=O)c1cc2c(OC)c(OC)c(OC)cc2[nH]1,7.219
Cc1cnn(CC2CCCN2C(=O)Cc2cccs2)c1 (stereo not drawn),-19.39
CCC[C@@H]1CN(Cc2ccccc2-c2ccco2)C[C@H]1NC(C)=O,-44.08
CSc1ncc(C(=O)N2C[C@@H](NC(C)=O)[C@H](c3ccc(C)cc3)C2)cn1,7.92
Cc1csc(N2CCCN(C(=O)C(C)n3ccnc3)CC2)n1 (stereo not drawn),6.877
Cc1c(Cl)ccc2ccc(NC(CO)CO)nc12,-0.8512
CC(C)CNC(=O)COc1cccc[n+]1[O-],-0.8318
Cc1cc(C(=O)NC2(c3cccc(F)c3)CCOCC2)no1,-10.08 and 9.905
CCN1CCN(C(=O)C(C)SC)CC1 (stereo not drawn),16.15
COC(=O)N1CCC(Nc2ccc(C#N)c(Cl)c2)C1 (stereo not drawn),10.6
Cc1csc(CNC(=O)N2CCN(Cc3cc(C)on3)CC2)n1,13.09
CC(C)NC(=O)N(C)C(c1cccc(F)c1)c1ccccn1 (stereo not drawn),3.047
CCc1noc(CN2CCN(C(=O)c3ccccc3F)CC2)n1,1.93 and -8.466
COC(=O)c1ccc(S(=O)(=O)N2CCCn3ncnc32)s1,-4.357
Cn1cc(-c2cnc(N3CCCC3)nc2)cc1C(=O)O,13.02
Cc1nnc(C2CCN(C(=O)c3ccc4nccnc4c3)CC2)s1,14.97 and -1.024
CC(C1CC1)N(C(=O)CNc1ccc(C#N)cc1)C1CC1 (stereo not drawn),8.627 and 28.17
CCS(=O)(=O)c1ccc(NCc2csc(C(C)C)n2)cc1,-10.58
COc1cccc(C(C(=O)O)N(C)Cc2ccc(C)o2)c1 (stereo not drawn),-1.3 and 24.29
CCc1ccc(C(C)NC(=O)c2ccc(CS(C)(=O)=O)o2)cc1 (stereo not drawn),31.4 and 28.26
[H][C@]12CC(COCc3cccnc3)C[C@]1([H])N(Cc1cccnc1)CCO2 (stereo partly drawn),5.352
Cn1cc(Br)cc(NC(=O)Cc2cccs2)c1=O,-21.78
Cc1cn2c(=O)c(-c3ccnc(N[C@@H](C)CO)n3)cnc2s1,-17.47
Cc1n[nH]c(C2CN(CCCOc3ccc(F)cc3)CCO2)n1 (stereo not drawn),-11.12
COC(=O)N1CCC(Nc2cccc(F)c2C#N)CC1,25.3
CC(C)NC(=O)CN1CCN(CC2CCOc3ccccc3C2)CC1 (stereo not drawn),0.7082 and -10.75
COc1ccc(OC2CCN(C(=O)c3cnc(C)s3)CC2)cc1,13.3 and 9.616
CC(C#N)(NC(=O)Cn1cc(I)cn1)C1CC1 (stereo not drawn),-11.89
COc1ccc(-c2noc(-c3ccc(N4CCC[C@H]4CO)nc3)n2)cc1,22.46
CCCNC(=O)c1ccc(S(=O)(=O)NC2(COC)CCCC2)cc1,21.05
c1ncn(CC2CN(Cc3noc(C4CC4)n3)CCO2)n1 (stereo not drawn),-29.87
[H][C@]12CN(c3ccc(C)nn3)CC[C@@]1(O)CCN(S(C)(=O)=O)C2,-28.31 and -3.291
Cc1ccn(CCNC(=O)C2(C)CC(c3ccccc3)=NO2)n1 (stereo not drawn),29.34
Cc1cc(C)c(CNC(=O)N2CCCC2c2cc(C)on2)c(=O)[nH]1 (stereo not drawn),5.38
CSc1ccc(C(=O)C2CCCN(C(=O)CCn3cnnn3)C2)cc1 (stereo not drawn),-12.32
O=C(CN1CCC(c2nnc(C(F)(F)F)o2)CC1)Nc1cccc(Cl)c1,-29.09
CC(=O)N(Cc1ncc(C)o1)C1CCN(Cc2ccccc2F)C1 (stereo not drawn),26.38
CCN(Cc1cccs1)S(=O)(=O)N(C)C(C)C,-1.995 and 4.914
Cc1csc(CNC(=O)N(C)Cc2cnn(C)c2)n1,-5.088
CN(Cc1ncc(-c2ccccc2)o1)CC1CCCN1c1cccnn1 (stereo not drawn),18.05
c1cc(CN2CCCC2c2noc(C3CC3)n2)on1 (stereo not drawn),-19.09
[H][C@@]12COC[C@]1(c1nnc(C3CC3)o1)CN(C(=O)c1ncccn1)C2,-3.95 and -14.9